# PubChem BioAssay AID2517 (National Center for Advancing Translational Sciences (NCATS), 2010)
# Amino acid sequences for entries named in this document (tags omitted).
# UniProt P27695, whole entry, looked up: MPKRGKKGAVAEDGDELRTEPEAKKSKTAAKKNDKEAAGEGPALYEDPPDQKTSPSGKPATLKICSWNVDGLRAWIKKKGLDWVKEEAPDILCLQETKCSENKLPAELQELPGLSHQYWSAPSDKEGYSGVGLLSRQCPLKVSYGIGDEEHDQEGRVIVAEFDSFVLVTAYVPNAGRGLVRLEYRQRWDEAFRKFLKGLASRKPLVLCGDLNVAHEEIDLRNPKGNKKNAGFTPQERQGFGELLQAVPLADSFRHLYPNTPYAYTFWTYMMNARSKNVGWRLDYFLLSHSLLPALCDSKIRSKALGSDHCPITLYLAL
# Out of some 350,000 compounds screened, about 1,200 (0.34%) were called active. Inconclusive results, whose numbers are uncertain, are shown with a selection of clear calls. Calls come from the whole dose curve; as a rule, active = well fitted inhibition curve with a large enough effect; inconclusive = small, poorly fitted or top-dose-only effect; inactive = no such curve, though single readings can be large or run the other way. Potencies beside an inconclusive call are fits to weak or partial responses and may not hold up.
# Target: DNA repair nuclease/redox regulator APEX1 (Homo sapiens) (UniProt P27695)
# Test: qHTS Assay for Inhibitors of the Human Apurinic/apyrimidinic Endonuclease 1 (APE1); note: nearly all actives have a fitted effect of over 55% in size;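 for activity change, negative = inhibition: plate controls were vehicle for no effect and reference inhibitor for full effect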
# Details: recombinant APE1, TAMRA/BHQ-2 abasic DNA cleavage fluorescence; activity change, negative = inhibition: at 65.8 µM (top of the series)
# Method in brief: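 Incision of a quenched TAMRA/BHQ-2 THF abasic-site duplex (50 nM) by 0.75 nM APE1, after 15 min compound preincubation, measured as fluorescence increase over three 60 s reads. Values normalized to buffer, DMSO and NSC13755 control wells.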
# Potency is the fitted concentration of half-maximal effect.
Structure (SMILES),Potency,"activity change, negative = inhibition"
Cc1ccc(S(=O)(=O)Nc2cc(C(C(=O)OC(C)C)C(=O)C(F)(F)F)c(O)c3ccccc23)c(C)c1 (stereo not given),"inconclusive: 39.8 µM [inhibitor, single point]",
COc1ccc(S(=O)(=O)NCc2cccs2)cc1,active: 12.6 µM,
COCCOC(=O)c1sc(=S)n(CCOC)c1N,"inconclusive: 31.6 µM [inhibitor, single point]",
O=C(O)c1ccc(-c2ccc(/C=N/Nc3ccc([N+](=O)[O-])cc3)o2)cc1,,inactive: -9.39%
O=C(COc1ccccc1C(=O)N/N=C\c1ccc(O)c(O)c1)N/N=C/c1ccc(O)c(O)c1,active: 2.82 µM,
O=C(NCC1OCCc2ccccc21)c1ccc(NC(=O)c2cccc(Br)c2)cc1 (stereo not given),"inconclusive: 44.7 µM [inhibitor, single point]",
CN(C(=O)COC(=O)c1cc(-c2ccco2)nc2ccccc12)C1CCS(=O)(=O)C1 (stereo not given),active: 7.94 µM,
O=C(NNC(=S)Nc1ccccc1C(F)(F)F)C1CC1,"inconclusive: 2.51 µM [inhibitor, single point]",
CNC(=S)N1CCn2cccc2C1c1ccc(F)cc1 (stereo not given),,inactive: -0.7%
O=C(O)CNC(=S)N(Cc1ccc(F)cc1)C1CCCCC1,"inconclusive: 25.1 µM [inhibitor, partial curve, poor fit]",
COc1cccc(=O)c2c(C)n(-c3ccc(C(=O)O)cc3)c(C)c12,"inconclusive: 15.8 µM [inhibitor, partial curve, poor fit]",
COc1ccc(CN2C(=O)c3cccc4cccc2c34)cc1F,,inactive: -17.3%
CN1N=C(C(=O)N2CCc3c([nH]c4ccccc34)C2c2c(F)cccc2Cl)CCC1=O (stereo not given),"inconclusive: 22.4 µM [inhibitor, single point]",
O=[N+]([O-])c1ccc(Sc2ncccn2)c([N+](=O)[O-])c1,"inconclusive: 0.224 µM [inhibitor, full curve, poor fit]",
CCCCCCOC(=O)Nc1ccc(S(=O)(=O)Nc2cccc([N+](=O)[O-])c2)cc1,"inconclusive: 44.7 µM [inhibitor, single point]",
COc1ccc(/C=N/NC(=O)c2cc3cc(OC)c(OC)cc3[nH]2)cc1,,inactive: -28.6%
CCOc1ccc(C(=O)Nc2ccc(NC(=O)c3ccco3)c(Cl)c2)cc1Cl,"inconclusive: 0.398 µM [inhibitor, full curve, poor fit]",
Cc1ccc(S(=O)(=O)N(C)/N=C/c2ccc(C(=O)O)cc2)cc1,"inconclusive: 15.8 µM [inhibitor, partial curve, poor fit]",
Oc1ccccc1/C=N/NC(=S)NC1CC2CCC1C2 (stereo not given),,inactive: -3.61%
O=C(O)c1ccc2c(c1)NC(=O)C(N1CCCC1)S2 (stereo not given),"inconclusive: 0.004 µM [inhibitor, full curve, poor fit]",

# 3 of the compounds above, with bars between the fields:
Structure (SMILES) | Potency | activity change, negative = inhibition
COc1ccc(S(=O)(=O)NCc2cccs2)cc1 | active: 12.6 µM | 
COc1cccc(=O)c2c(C)n(-c3ccc(C(=O)O)cc3)c(C)c12 | inconclusive: 15.8 µM [inhibitor, partial curve, poor fit] | 
Cc1ccc(S(=O)(=O)N(C)/N=C/c2ccc(C(=O)O)cc2)cc1 | inconclusive: 15.8 µM [inhibitor, partial curve, poor fit] | 

# (listing goes on)

Structure (SMILES),Potency,"activity change, negative = inhibition"
COc1ccc2nc(N=NC3=C(O)CC(C)(C)CC3=O)sc2c1,,inactive: -4.92%
CCCn1c(SCC(=O)N2CCCc3ccccc32)nc2c1c(=O)n(C)c(=O)n2C,,inactive: -7.83%
Cc1ccc(NC(=O)N(Cc2ccc3c(c2)OCO3)Cc2cc3cc4c(cc3[nH]c2=O)OCCO4)cc1,"inconclusive: 44.7 µM [inhibitor, single point]",
Nc1ccc(C(=O)N/N=C/c2sc(N3CCOCC3)nc2-c2ccccc2)cc1,"inconclusive: 17.8 µM [inhibitor, partial curve, poor fit]",
Cc1cc(N)n(-c2ccc(Oc3ccccc3)c(S(=O)(=O)O)c2)n1,active: 35.5 µM,
CC(C)(C)c1ccc(C[C@H](C(=O)O)N2C(=O)c3ccc(C(=O)O)cc3C2=O)cc1,"inconclusive: 39.8 µM [inhibitor, single point]",
COC(=O)CN1C(=O)CC(C)(C)Sc2ccccc21,"inconclusive: 3.16 µM [inhibitor, single point]",
O=[N+]([O-])c1cccc(-c2nc(-c3cccs3)c(-c3cccs3)[nH]2)c1,"inconclusive: 50.1 µM [inhibitor, partial curve, poor fit]",
O=C(c1cc2c(s1)CCC2)N1CCN(c2ccccc2)CC1,"inconclusive: 17.8 µM [inhibitor, partial curve]",
COCCN1Cc2cccc(C(=O)Nc3ccc(S(=O)(=O)N4CCCCC4)cc3)c2C1=O,"inconclusive: 0.0141 µM [inhibitor, full curve, poor fit]",
CCCc1cc(=O)[nH]c(SCC(=O)NC)n1,"inconclusive: 1.26 µM [inhibitor, full curve, poor fit]",
COc1ccc(NS(=O)(=O)c2ccc(O)c(NC(=O)c3cc4c(C)nn(-c5ccc(F)cc5)c4s3)c2)cc1,"inconclusive: 39.8 µM [inhibitor, single point]",
CC(=O)c1ccc(N2CCN(C(=O)CCCn3c(=O)[nH]c4ccccc4c3=O)CC2)cc1,"inconclusive: 31.6 µM [inhibitor, partial curve, poor fit]",
CCC(=O)OCC(=O)[C@@]1(OC(=O)CC)[C@@H](C)C[C@H]2[C@@H]3CCC4=CC(=O)C=C[C@]4(C)[C@@]3(F)[C@@H](O)C[C@@]21C,"inconclusive: 39.8 µM [inhibitor, single point]",
CC1(C)O[C@@H]2C[C@H]3[C@@H]4C[C@H](F)C5=CC(=O)CC[C@]5(C)[C@H]4[C@@H](O)C[C@]3(C)[C@]2(C(=O)CO)O1,"inconclusive: 0.0045 µM [inhibitor, full curve, poor fit]",
O=C(Nc1ccccc1N1CCN(C(=O)c2ccccc2)CC1)c1ccc(Cl)cc1,"inconclusive: 15.8 µM [inhibitor, partial curve, poor fit]",
CCN(CC)c1ccc2nc3ccc(N)cc3[n+](-c3ccccc3)c2c1,active: 23.8 µM,
CCN1/C(=C/c2cc[n+](CCCS(=O)(=O)[O-])c3ccccc23)Sc2ccccc21,"inconclusive: 22.4 µM [inhibitor, partial curve, poor fit]",
COc1ccc(NC(=O)CN(C)C(=O)c2cc3c(s2)CCCCC3)cc1,,inactive: -9.37%
Brc1csc2ncccc12,"inconclusive: 8.91 µM [inhibitor, single point]",
